Assay results reported in PMC10624613.

By UniProt entry, the sequences of proteins in these tests, tags left out. Where a name states a change or a piece, a line headed by the entry shows the natural chain unless it says otherwise.
UniProt O94952: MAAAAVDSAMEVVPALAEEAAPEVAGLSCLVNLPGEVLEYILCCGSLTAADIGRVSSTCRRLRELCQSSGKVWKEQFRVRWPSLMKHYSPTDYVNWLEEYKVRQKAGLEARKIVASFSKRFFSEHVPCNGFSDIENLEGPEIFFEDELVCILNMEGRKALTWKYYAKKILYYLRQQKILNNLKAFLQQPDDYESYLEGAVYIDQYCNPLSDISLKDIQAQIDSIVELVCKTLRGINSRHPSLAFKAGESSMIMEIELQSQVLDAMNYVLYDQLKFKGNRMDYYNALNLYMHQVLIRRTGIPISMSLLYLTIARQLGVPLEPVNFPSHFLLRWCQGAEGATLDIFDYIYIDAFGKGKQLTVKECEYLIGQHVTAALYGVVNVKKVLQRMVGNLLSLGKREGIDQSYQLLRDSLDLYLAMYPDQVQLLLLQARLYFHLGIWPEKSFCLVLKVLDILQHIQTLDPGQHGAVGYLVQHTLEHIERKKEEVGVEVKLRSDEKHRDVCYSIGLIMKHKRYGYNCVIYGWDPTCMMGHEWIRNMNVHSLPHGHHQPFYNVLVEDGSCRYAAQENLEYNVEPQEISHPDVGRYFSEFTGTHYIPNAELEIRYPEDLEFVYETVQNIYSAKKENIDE
UniProt P27986: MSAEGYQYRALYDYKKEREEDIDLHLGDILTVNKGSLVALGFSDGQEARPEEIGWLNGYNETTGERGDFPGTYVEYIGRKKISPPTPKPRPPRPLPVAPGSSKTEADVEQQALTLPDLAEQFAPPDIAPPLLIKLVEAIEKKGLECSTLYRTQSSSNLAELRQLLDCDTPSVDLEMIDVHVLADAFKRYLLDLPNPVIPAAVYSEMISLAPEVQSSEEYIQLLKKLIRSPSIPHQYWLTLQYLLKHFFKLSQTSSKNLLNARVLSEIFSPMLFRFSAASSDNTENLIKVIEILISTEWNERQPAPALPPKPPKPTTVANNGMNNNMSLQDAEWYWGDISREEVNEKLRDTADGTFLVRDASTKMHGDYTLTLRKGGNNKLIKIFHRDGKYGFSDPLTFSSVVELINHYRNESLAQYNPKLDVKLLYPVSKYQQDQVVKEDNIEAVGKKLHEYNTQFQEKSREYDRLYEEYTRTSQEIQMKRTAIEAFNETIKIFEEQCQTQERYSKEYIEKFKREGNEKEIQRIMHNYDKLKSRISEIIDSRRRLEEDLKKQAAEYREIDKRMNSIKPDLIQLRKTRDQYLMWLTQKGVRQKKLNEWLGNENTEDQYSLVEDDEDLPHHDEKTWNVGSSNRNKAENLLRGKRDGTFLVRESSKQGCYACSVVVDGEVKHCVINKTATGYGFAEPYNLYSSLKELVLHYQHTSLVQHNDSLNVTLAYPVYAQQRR

Target: HA-tagged FBOX domain deleted FBXO21 (UniProt O94952)
Assay: co-IP; HEK293T cells transiently transfected with GFP-tagged p85α and/or HA-tagged FBXO21/ΔFBXO21; immunoprecipitation of GFP or HA, western blot

GFP-tagged p85α (from UniProt P27986 1-724)
binding: binds

These are yes or no findings as the source states them, for the method shown. Binding seen in cells or lysates may run through a third protein. A result given as binding can be weak or reduced; the word gives no strength.
